Results taken from patent CN111499746A.
Results are given in words; binding and its absence hold for the method and conditions named. Some binding calls cover weakened binding; strength is not graded here.

Chains of the proteins cited; added tags and fusions are not shown. Residues count along the entry.
UniProt P60568, residues 21-153: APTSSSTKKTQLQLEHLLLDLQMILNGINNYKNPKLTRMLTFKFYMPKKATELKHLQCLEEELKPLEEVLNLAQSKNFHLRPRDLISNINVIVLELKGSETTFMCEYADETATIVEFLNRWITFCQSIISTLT

Experiments:
[1] = target: 重组人IL-2蛋白 (human) (UniProt P60568); assay: sandwich ELISA specificity test, standard proteins at 10 ng/ml
[2] = target: 重组人IL-2蛋白 (human) (UniProt P60568); assay: sandwich ELISA, A coated at 5 ug/ml as capture, biotinylated B at 5 ug/ml as detection, recombinant human IL-2 titrated
[3] = target: PBMC经刺激之后分泌的内源性人IL-2蛋白 (human) (UniProt P60568); assay: sandwich ELISA on supernatant of PBMC stimulated with PMA and PHA

Measured: binding

B1: 抗人IL-2蛋白兔单克隆抗体A (antibody, V domains shown)
VH: QSVAESGGRLVTPGTPLTLTCTASGFSLTTYAMSWVRQAPGKGLEWIAIIYIDGTTYYGSWAKGRFTISKTSTTVDLRIISPTTEDTATYFCAKWYVGEMDLWGPGTLVTVSS
VL: DIVMTQTPASVEAAVGGTVTINCQASQSVYRDNYLAWYQQKPGQRPKLLIYGTSTLASGVSSRFKGSGSGTQFTLTISDLECADAATYYCQSYVYSSTIDNAFGGGTEVVVKG
binds: all assays above
